In PubChem BioAssay AID504467 (National Center for Advancing Translational Sciences (NCATS), 2011):
Where “and” joins values, the source holds several entries; their conditions need not be identical. Equal entries are not always repeated. Screen size: about 330,000 compounds; about 7,700 (2.3%) were called active. The inconclusive results got no clear call from the source; some entries with a clear call stand among them for comparison. The call rests on the fitted dose curve; in most records, active means well fitted inhibition curve with a large enough effect; inconclusive means small, poorly fitted or top-dose-only effect, or effect the other way; inactive means flat fitted curve, though single readings scatter. Where the call is inconclusive, the potency comes from a doubtful curve fit.

experiment: qHTS screen for small molecules that inhibit ELG1-dependent DNA repair in human embryonic kidney (HEK293T) cells expressing luciferase-tagged ELG1; conditions: HEK293T ELG1-luciferase reporter, luminescence, 16 h, DNA damage induced by 5-fluorouridine; series mostly up to 46.1 µM; further: nearly all actives have a fitted effect of over 55% in size
Outline: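 HEK293T cells expressing luciferase-tagged ELG1 (2,000/well) received 5-Fluorouridine plus compound or DMSO for 16 hr at 37 °C. Luciferase was read by ONE-Glo luminescence after 30 min at room temperature.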
Potency means the concentration at half of the fitted maximal effect.

Structure (SMILES)	Potency
CCc1ccc2oc(C(=O)Nc3nonc3C)c(C)c2c1	inconclusive: 4.61 µM [activator, partial curve]
Cc1ccc(NC(=O)c2cnn(-c3ccccc3)c2C)cc1	inconclusive: 20 µM [activator, partial curve, poor fit]
COc1ccc(NC(=O)C2CCCN2S(=O)(=O)c2cccc3cccnc23)c(OC)c1 (stereo not drawn)	inconclusive: 29.1 µM [inhibitor, partial curve, poor fit]
COc1ccc(O)c(/C=N/n2c(-c3ccco3)csc2=Nc2cccnc2)c1	inactive
O=C1Nc2ccccc2O/C1=C\c1ccccc1Br	inactive
CCOc1ccc2c3c(c(=O)oc2c1OCC)CCCC3	inactive
CCn1c(=O)cc(OCC(=O)Nc2cccnc2)c2ccccc21	inconclusive: 5.17 µM [activator, partial curve, poor fit]
CCOCCCn1c(SCC(=O)Nc2ccccc2OC)nc2ccccc2c1=O	inconclusive: 35.5 µM [inhibitor, single point]
COc1cc2sc(C)nc2cc1C	inconclusive: 23.1 µM [activator, partial curve, poor fit]
COc1cccc(CNC(=O)C(CC(C)C)NC(=O)c2ccccc2C)c1 (stereo not drawn)	inactive
COc1cccc2sc(=NC(=O)CCS(=O)(=O)c3ccc(C)cc3)n(C)c12	inactive
Cn1c(CN2CCCCC2)nc2cc(NC(=O)c3ccccc3)ccc21	inconclusive: 35.5 µM [inhibitor, single point]
O=C(Nc1ccc(Cl)c(Cl)c1)c1ccc(Cn2c(=O)[nH]c3ccsc3c2=O)cc1	inactive
C=C(C)c1cccc(C(C)(C)NC(=O)Nc2cc(C)ccc2OC)c1	inactive
Cc1cnc(NC(=O)C2CCC(C(C)(C)C)CC2)s1 (stereo not drawn)	inconclusive: 13 µM [activator, partial curve]
COc1ccc(/C=C2\SC(=S)N(CCCC(=O)NNC(=O)c3ccccc3O)C2=O)cc1	inconclusive: 23.1 µM [inhibitor, partial curve, poor fit]
CN(Cc1cccc2cnccc12)C(=O)c1cc(COc2ccc(F)cc2F)on1	inconclusive: 16.4 µM [inhibitor, partial curve]
CCOC(=O)C1(CCCc2ccccc2)CCN(Cc2cnc(C)s2)CC1	inactive
CCC(C)n1c(SCC(=O)NC(=O)Nc2ccc3c(c2)OCCO3)nc2ccccc2c1=O (stereo not drawn)	inconclusive: 20.6 µM [inhibitor, single point]
COc1ccccc1NC(=O)c1ccc(NC(=O)COC(=O)C2(C)CC2(Cl)Cl)cc1 (stereo not drawn)	inconclusive: 23.1 µM [inhibitor, partial curve]
CCOc1ccc(S(=O)(=O)NCc2ccncc2)cc1NC(=O)c1ccccc1F	inconclusive: 2.31 µM [inhibitor, partial curve, poor fit]
CC(=O)Nc1ccccc1OCC(=O)N(Cc1ccccc1)C(C)C	inconclusive: 2.31 µM [inhibitor, partial curve, poor fit]
CCCCCCOC(=O)C(C#N)c1nc2ccccc2nc1N1CCOCC1 (stereo not drawn)	inconclusive: 11.6 µM [inhibitor, partial curve]

Structure (SMILES)	Potency
S=C1SCN(Cc2ccco2)CN1Cc1ccco1	inconclusive: 18.3 µM [inhibitor, partial curve]
Cc1cc(C(=O)Nc2ccc3c(c2)OCCO3)co1	inconclusive: 1.84 µM [activator, full curve]
N#C/C(=C(/O)CCl)c1nc2c(s1)CCc1ccccc1-2	inconclusive: 23.1 µM [activator, partial curve]
Cn1c(N)c(C#N)c2c(c1=S)COC(C)(C)C2	inconclusive: 16.4 µM [activator, partial curve, poor fit]
COc1cc(/C=C/[N+](=O)[O-])ccc1OCc1cccc(C(=O)O)c1	inconclusive: 0.651 µM [activator, partial curve, poor fit]
COc1ccc(Nc2ncc3c(n2)CC(c2ccc(OC)cc2)CC3=O)cc1 (stereo not drawn)	active: 13 µM
CCOC(=O)CS(=O)(=O)c1nc(-c2ccc(F)cc2)cc(C(F)(F)F)n1	inconclusive: 23.1 µM [inhibitor, single point]
COCCNC(=O)CSc1nc(-c2ccc(OC)c(OC)c2)cc(C(F)(F)F)n1	inactive
O=C(Nc1nnc(C2CC2)s1)c1ccc(Cl)nc1	inconclusive: 14.6 µM [activator, partial curve]
Cc1cc(NC(=O)COc2ccccc2C#N)no1	inconclusive: 2.06 µM [activator, partial curve]
COc1ccc(CN2CCN(C(=O)CCC(=O)Nc3nnc(C4CCCCC4)s3)CC2)cc1F	active: 5.8 µM
CCOC(=O)c1ccc(NC(=O)CSC2=NN3CCCC(=O)N=C3S2)cc1	inactive
Cc1nc2ccc(S(=O)(=O)Nc3cc(-c4nc5cccnc5s4)ccc3C)cc2s1	inconclusive: 5.17 µM [activator, single point]
COc1ccc(N2C(=O)N(Cc3ccc(C)cc3)c3ccccc3S2(=O)=O)cc1	inconclusive: 14.6 µM [inhibitor, partial curve]
COc1ccc2cc(Br)ccc2c1CC(=O)NC(C)(C)C	inconclusive: 1.3 µM [inhibitor, partial curve, poor fit]
CSc1ccc(S(=O)(=O)Nc2ccc3c(c2)NC(=O)CC3)cc1	active: 8.2 µM
COc1ccccc1C(=O)NCCC(=O)Nc1ccc(S(=O)(=O)N2CCCC(C)C2)cc1 (stereo not drawn)	inconclusive: 29.1 µM [inhibitor, single point]
CCCc1cc(=O)n2[nH]c(NCc3c(Cl)cccc3Cl)nc2n1	inactive
COc1ccc(NC2c3ccccc3C(=O)N2Cc2ccccc2Cl)cc1OC (stereo not drawn)	inconclusive: 2.06 µM [activator, partial curve, poor fit]
CSc1nc2sc3c(c2c(=O)[nH]1)CC(C)(C)OC3	inconclusive: 31.6 µM [activator, single point]
COc1ccc(CC(=O)NNS(=O)(=O)c2ccc(F)cc2)cc1	inconclusive: 18.3 µM [inhibitor, single point]
Cc1cc(C)cc(C(=O)NCC(=O)OCc2nc(N)nc(Nc3ccccc3C)n2)c1	inconclusive: 3.55 µM [inhibitor, partial curve, poor fit]
Cc1ccc(C(=O)Nc2ccc(N3CCOCC3)cc2)cc1	inconclusive: 13 µM [activator, partial curve] and inconclusive: 16.4 µM [activator, partial curve]

Structure (SMILES)	Potency
Cc1ccc(NC(=O)C2CC(=O)N(c3ccc4c(c3)OCCO4)C2)cc1S(=O)(=O)N(C)C (stereo not drawn)	inconclusive: 5.17 µM [inhibitor, full curve, poor fit]
CN1CCN(C(=O)/C=C/c2ccc(Cl)c(Cl)c2)CC1	inconclusive: 16.4 µM [activator, partial curve, poor fit]
COc1cc(C2CC(=O)Oc3cc(O)ccc32)cc(OC)c1OC (stereo not drawn)	inconclusive: 20.6 µM [activator, partial curve, poor fit]
Cc1sc2nc(CSCC(=O)Nc3ccccc3C#N)[nH]c(=O)c2c1C	inconclusive: 18.4 µM [inhibitor, partial curve, poor fit]
Fc1ccccc1COc1ccccc1/C=N/Nc1nc(N2CCCC2)nc(N2CCCC2)n1	inconclusive: 32.6 µM [inhibitor, partial curve, poor fit]
N#CC1CN(Cc2ccccc2)CN(Cc2ccccc2)C1	inactive
O=C(CCc1ccccc1)n1nc(-c2ccccc2)nc1NCc1ccco1	inconclusive: 14.6 µM [activator, partial curve, poor fit]
Cc1cnc(Nc2nc3ccccc3o2)nc1C(=O)Nc1cccc(C(F)(F)F)c1	inconclusive: 23.1 µM [activator, single point]
O=C(Cc1cccs1)Nc1nnc(SCc2ccc(F)cc2)s1	inconclusive: 23.1 µM [activator, partial curve, poor fit]
CCNC(=S)N/N=C(\C)c1cccc([N+](=O)[O-])c1	inactive
COc1cccc(CNC(=O)Cn2ccc3cc(S(=O)(=O)N4CCCC4)ccc32)c1	inactive
Nn1c(-c2ccco2)n[nH]c1=S	inactive
CCOc1ccc(/C(O)=C2/C(=O)C(=O)N(CCCN3CCOCC3)C2c2ccc(F)cc2)cc1C (stereo not drawn)	inactive
COc1cccc(C2c3[nH]c4ccccc4c3C[C@H]3C(=O)N(C4CCN(Cc5ccccc5)CC4)CC(=O)N23)c1 (stereo partly drawn)	inconclusive: 20.6 µM [inhibitor, single point]
Cc1ccc(S(=O)(=O)NCCC(=O)OC(C)C(=O)NC2CC2)cc1 (stereo not drawn)	inconclusive: 29.1 µM [activator, single point]
O=C(CSc1ncnc2ccccc12)Nc1cccc(S(=O)(=O)N2CCOCC2)c1	inactive
CC(NCC(=O)Nc1ccccc1C(=O)NC1CC1)c1ccc(F)cc1F (stereo not drawn)	inactive
O=C(NCc1ccccc1CN1CCOCC1)c1ccc(-n2cccn2)cc1	inactive
COc1ccc(-c2cc(C(F)F)n3ncc(C(=O)N4CCCCC4)c3n2)cc1	inconclusive: 20.6 µM [inhibitor, single point]
COc1ccc(C(=O)N2CCc3cc(OC)c(OC)cc3C2)cc1OC	inconclusive: 29.1 µM [inhibitor, single point]
COCCNC(=O)CN(C(=O)CCC(=O)Nc1ccccn1)c1ccccc1OC	inactive
O=C(CSc1ncnc2sc3c(c12)CCCC3)c1ccco1	inconclusive: 11.6 µM [activator, partial curve, poor fit]
